No constants are given. Whether binding was seen depends on the method and setting. Binding seen in cells or lysates may run through a third protein. Some results given as binding are weak or reduced against the parent protein; the word gives no strength. Sequences can lack the tags named with a protein.
Experiments:
[1] = target: T1, Mouse CatSperζ, V5-tagged (pCAG-mCatSperz-V5) (mouse) (UniProt Q9CQP8); test: co-IP; proteins co-expressed transiently in HEK293T cells; lysis in 1% Triton X-100 in PBS with protease inhibitors; supernatant incubated with anti-V5 agarose, anti-FLAG affinity gel or anti-HA magnetic beads at 4 °C overnight; washed three times with 1% Triton X-100 in PBS; immunoblot
T1 sequence: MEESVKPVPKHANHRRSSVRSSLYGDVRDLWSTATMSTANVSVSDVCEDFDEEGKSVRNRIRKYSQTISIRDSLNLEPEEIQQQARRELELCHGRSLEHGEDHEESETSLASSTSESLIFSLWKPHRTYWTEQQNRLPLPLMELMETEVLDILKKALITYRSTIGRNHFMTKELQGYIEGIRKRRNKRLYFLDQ

Protein sequences, listed by entry. Tags and fused reporters are not part of them.
UniProt A8MZ26: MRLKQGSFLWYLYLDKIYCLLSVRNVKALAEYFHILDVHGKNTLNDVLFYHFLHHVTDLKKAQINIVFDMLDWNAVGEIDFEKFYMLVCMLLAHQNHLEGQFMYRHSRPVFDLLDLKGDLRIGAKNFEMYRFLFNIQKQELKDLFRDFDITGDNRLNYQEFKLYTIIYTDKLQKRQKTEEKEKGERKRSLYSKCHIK
UniProt Q9DAM2: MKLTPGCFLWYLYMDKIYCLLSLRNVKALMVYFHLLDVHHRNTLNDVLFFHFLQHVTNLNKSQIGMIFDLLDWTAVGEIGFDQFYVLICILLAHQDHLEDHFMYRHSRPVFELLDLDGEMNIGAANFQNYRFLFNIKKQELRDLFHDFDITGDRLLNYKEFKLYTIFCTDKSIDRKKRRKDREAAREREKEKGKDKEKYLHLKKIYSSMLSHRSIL

[2] = target: T2, Human CatSperζ, V5-tagged (phCMV3-hCatSperz-V5) (human) (UniProt Q9NTU4); test: as above
T2 sequence: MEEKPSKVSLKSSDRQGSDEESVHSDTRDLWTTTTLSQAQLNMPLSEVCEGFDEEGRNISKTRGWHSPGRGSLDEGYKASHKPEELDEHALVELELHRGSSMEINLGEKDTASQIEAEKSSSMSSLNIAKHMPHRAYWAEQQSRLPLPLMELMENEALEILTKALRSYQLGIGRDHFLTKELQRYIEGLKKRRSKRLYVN

| binding [1] | binding [2] | Substance |
| --- | --- | --- |
| binds | – | Human EFCAB9, HA-tagged (phCMV3-hEFCAB9-HA) (from UniProt A8MZ26 1-197) |
| – | binds | Mouse EFCAB9, HA-tagged (phCMV3-mEFCAB9-HA) (from UniProt Q9DAM2 1-216) |

From publication PMC8147001
